These are yes or no findings as the source states them, for the method shown. In cells and extracts the contact can be indirect. Tags and fused reporters may be left off the sequences shown.
Biological target: YN alone (N-terminal part of the yellow fluorescent protein)
Experiment: split reporter; BiFC with YN and YC fusions transiently coexpressed in N. benthamiana leaf epidermis; 25 °C for 24 h; confocal microscopy of YFP

B1: YC-RBR1 (RBR1 fused to the C-terminal part of YFP) (protein, UniProt Q9LKZ3 1-1013)
chain: MEEVQPPVTPPIEPNGKRSEASLLDICEKVLSLDGSTCDEALKLFTETKRILSASMSNIGSGTREEVERFWFAFILYSVKRLSVRKEADGLSVSGDNEFNLCQILRALKLNIVDFFKELPQFVVKAGSVLGELYGADWENRLQAKEVQANFVHLSLLSKYYKRGFREFFLTYDANAEKNSANSSTYLLDSYRFGWLLFLALRNHAFSRFKDLVTCSNGVVSILAILIIHVPCRFRNFSIQDSSRFVKKGDKGVDLVASLCKIYDASEDELRIVIDKANNLVETILKKKPSPASECQTDKLDNIDPDGLTYFEDLLEETSISTSLITLEKDYYDGKGELDERVFINEEDSLLGSGSLSAGAVNITGVKRKIDALSSPARTFISPLSPHKSPAAKTNGISGATKLAATPVSTAMTTAKWLRTVISPLLPKPSPGLEHFLKSCDRDITNDVTRRAHIILEAIFPNSSLGAQCGGGSLQAVDLMDDIWAEQRRLEACKLYYRVLEAMCKAEAQILHANNLNSLLTNERFHRCMLACSAELVLATHKTITMLFPAVLERTGITAFDLSKVIESFIRHEDSLPRELRRHLNSLEERLLESMVWEKGSSMYNSLIVARPSLALEINQLGLLAEPMPSLDAIAALINFSDGANHASSVQKHETCPGQNGGIRSPKRLCTDYRSILVERNSFTSPVKDRLLALGNVKSKMLPPPLQSAFASPTRPNPGGGGETCAETGINIFFTKINKLAAVRINGMVERLQLSQQIRESVYCFFQHVLAQRTSLLFSRHIDQIILCCFYGVAKISQMSLTFREIIYNYRKQPQCKPLVFRSVYVDALQCRRQGRIGPDHVDIITFYNEIFIPAVKPLLVELGPVRNDRAVEANNKPEGQCPGSPKVSVFPSVPDMSPKKVSAVHNVYVSPLRGSKMDALISHSTKSYYACVGESTHAYQSPSKDLSAINNRLNNSSSNRKRTLNFDAEAGMVSDSMVANSLNLQNQNQNQNGSDASSSGGAAPLKTEPTDS
In the case of B1, the binding is reported as “no binding”.
